The record followed here is US20220010018A1 (ALBERT EINSTEIN COLLEGE OF MEDICINE, published 2022).

No constants are given. Whether binding was seen depends on the method and setting. Some entries that bind do so weakly or less than the wild type.

Assay [1] deals with T1, endogenous B7-H3 expressed by human cells (human) (UniProt Q5ZPR3).
T1 sequence: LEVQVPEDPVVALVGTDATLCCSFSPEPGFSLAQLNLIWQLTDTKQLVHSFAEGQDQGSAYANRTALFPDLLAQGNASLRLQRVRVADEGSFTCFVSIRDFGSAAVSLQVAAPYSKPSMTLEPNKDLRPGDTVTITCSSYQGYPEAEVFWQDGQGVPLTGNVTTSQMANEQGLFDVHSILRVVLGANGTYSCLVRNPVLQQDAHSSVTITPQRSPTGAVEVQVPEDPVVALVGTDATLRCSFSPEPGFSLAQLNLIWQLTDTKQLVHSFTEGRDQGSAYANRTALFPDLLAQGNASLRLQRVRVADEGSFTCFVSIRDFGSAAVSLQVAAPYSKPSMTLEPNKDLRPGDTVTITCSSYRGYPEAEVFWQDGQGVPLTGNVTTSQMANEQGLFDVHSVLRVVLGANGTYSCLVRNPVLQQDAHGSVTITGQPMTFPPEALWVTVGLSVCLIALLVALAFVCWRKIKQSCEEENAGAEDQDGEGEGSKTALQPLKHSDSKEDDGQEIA
Description: FACS on PC3 and MDA-MB231 cells.

Assay [2] concerns the target T1, endogenous B7-H3 expressed by human cells (human). Description: flow cytometry (FACS) on PC3 and MDA-MB231 cells with endogenous B7-H3; single staining, antibody concentration not given. A general note: Flow cytometry measures light scatter and fluorescence of single cells or particles in a stream.

B1: monoclonal antibody 12B4 (antibody, IgG2b, V domains shown)
VH: QVQLQQPGAELVKPGASVKLSCKASGYTFTSYWMHWVKQRPGQGLEWIGMIHPNSGSTNYNEKFKSKATLTVDKSSSTAYMQLSSLTSEDSAVYYCARYYYGSSYAMDYWGQGTSVTVS
VL: QIVLTQSPAIMSASPGEKVTITCSASSSVSYMHWFQQKPGTSPKLWIYSTSNLASGVPARFSGSGSGTSYSLTISRMEAEDAATYYCQQRSSYPYTFGGGTKLEIKR
notes: Residue limits come from CLM-00006; also called mAb 12B4
Regarding B1, the binding result in assay [1] and in assay [2] was “binds” in each case.

B2: monoclonal antibody 8B12 (antibody, IgG3, V domains shown)
VH: QVQLQQPGAELVKPGASVKMSCKASGYTFTSYWITWVKQRPGQGLEWIGDIYPGSGSTNYNEKFKSKATLTVDTSSSTAYMQLSSLTSEDSAVYYCARGGTRFSPFAYWGQGTLVTVSA
VL: DVLMTQTPLSLPVSLGDQASISCRSSQSIVHSNGNTYLEWYLQKPGQSPKLLIYKVSNRFSGVPDRFSGSGSGTDFTLKISRVEAEDLGVYYCFQGSHVPWTFGGGTKLEIKR
notes: Residue limits come from CLM-00006; also called mAb 8B12
B2: the binding entry in assay [1] and in assay [2] was “binds” each time.
